# Binding screen against folded nucleic acids

Data from the ROBIN nucleic acid binder screens, doi:10.1002/anie.202211358.

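Each compound is printed as two spots on a slide made to bind it covalently, so it has no test concentration; the read-out is fluorescence of the bound, labelled oligonucleotide. For the PreQ1, TPP and SAM-II riboswitches the laboratory earlier reported (doi:10.1038/s41467-019-09493-3) 1 µM RNA, 2 h, and a rule that included a mean Z-score above 3 (spot signal-to-noise against the whole library), a score well above that on a control array, and duplicate spots agreeing (coefficient of variation under 100). The data file gives only the calls; its cut-offs may differ, and compounds hitting several targets are kept. These are primary screening calls, not affinities; a compound without a hit may have attached poorly or may still bind in solution.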 “active” means called a hit, “inactive” means screened and not called a hit. This is an unselected part of the compounds tested. A target missing from an entry has no call listed here.

Oligonucleotides screened, 5′ to 3′:
SAM-II: SAM-II riboswitch RNA pseudoknot, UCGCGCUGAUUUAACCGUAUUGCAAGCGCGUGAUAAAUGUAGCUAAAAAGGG. About 21,000 compounds screened, about 200 hits.
TPP: TPP riboswitch RNA three-way junction, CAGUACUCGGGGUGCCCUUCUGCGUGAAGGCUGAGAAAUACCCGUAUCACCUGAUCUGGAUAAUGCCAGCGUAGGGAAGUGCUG. About 24,000 compounds screened, about 160 hits.
PreQ1: PreQ1 riboswitch RNA pseudoknot, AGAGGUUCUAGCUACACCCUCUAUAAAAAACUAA. From B. subtilis. About 24,000 compounds screened, about 170 hits.

For Cc1ccc2cc(C3(O)CCN(C(=O)[C@@H](N)Cc4c[nH]cn4)CC3)ccc2n1 the calls were SAM-II: inactive; TPP: inactive; PreQ1: inactive.
For Nc1ccc(Sc2ccccn2)c(Cl)c1 the calls were SAM-II: inactive; TPP: inactive; PreQ1: inactive.
For CCOC(=O)c1c(C)nsc1Nc1cc(C)ccc1C the calls were SAM-II: inactive; TPP: inactive; PreQ1: inactive.
For CCCCNc1cc(C)nc2nc(-c3ccc(C(C)(C)C)cc3)nn12 the calls were TPP: inactive; PreQ1: inactive.
For CCOc1ccccc1Nc1cc(-c2ccc(OC)cc2)nc(C)n1 the calls were TPP: inactive; PreQ1: inactive.
For Cc1cccc(-c2nc3nc(C)cc(NC(C)C)n3n2)c1 the calls were TPP: inactive; PreQ1: inactive.
For CCc1cccc(NS(=O)(=O)c2cc(Br)cnc2N)c1 the calls were TPP: inactive; PreQ1: inactive.
For COc1ccccc1-c1cccc(-c2c(O)c3cc(C#N)c(Cl)cc3[nH]c2=O)c1 the calls were SAM-II: inactive; TPP: inactive; PreQ1: inactive.
For Nc1ccnc2ccccc12 the calls were SAM-II: inactive; TPP: inactive; PreQ1: inactive.
For O=C(CN1CCN(Cc2ccc(CO)o2)CC(O)C1)NC1CC1 (configuration not stated) the calls were SAM-II: inactive; TPP: inactive; PreQ1: inactive.
For CCOC(=O)c1nc(Nc2ccc(N3CCCC3)cc2)c2ccccc2n1 the calls were SAM-II: inactive; TPP: inactive; PreQ1: inactive.
For COc1cccc(C2c3c(-c4c(C)cc(C)cc4O)n[nH]c3C(=O)N2CCO)c1 (configuration not stated) the calls were TPP: inactive; PreQ1: inactive.
For Nc1nc(=O)n([C@H]2C[C@H](O)[C@@H](CO)O2)cc1F the calls were SAM-II: inactive; TPP: inactive; PreQ1: inactive.
For Cn1c(=O)c2[nH]c(NCc3ccccc3Cl)nc2n(C)c1=O the calls were SAM-II: inactive; TPP: inactive; PreQ1: inactive.
For COc1ccc(C2CC(=O)C3=C(C2)Nc2ccccc2NC3c2c[nH]c3ccccc23)cc1 (configuration not stated) the calls were SAM-II: inactive; TPP: inactive; PreQ1: active.
For CCOC(=O)c1c(N)n(-c2cccc(C)c2C)c2nc3ccccc3nc12 the calls were SAM-II: inactive; TPP: inactive; PreQ1: inactive.
For CC1(C)CC(=O)C2=C(C1)OC(N)=C(C#N)C2c1cc(CN2CCOCC2)cs1 (configuration not stated) the calls were SAM-II: inactive; TPP: inactive; PreQ1: inactive.
For O=C(COc1ccc(C(=O)N2CCCNCC2)cc1)N1CCCCC1 the calls were SAM-II: inactive; TPP: inactive; PreQ1: inactive.
For COc1ccc2[nH]c(CNc3nc(N)nc(C)c3CCC(=O)O)cc2c1 the calls were SAM-II: inactive; TPP: inactive; PreQ1: inactive.
For OC(CNc1ccccc1)Cn1c2ccccc2c2ccccc21 (configuration not stated) the calls were SAM-II: inactive; TPP: inactive; PreQ1: inactive.

Some entries from above, unchanged:

- Nc1nc(=O)n([C@H]2C[C@H](O)[C@@H](CO)O2)cc1F : SAM-II: inactive; TPP: inactive; PreQ1: inactive
- COc1ccc(C2CC(=O)C3=C(C2)Nc2ccccc2NC3c2c[nH]c3ccccc23)cc1 (configuration not stated) : SAM-II: inactive; TPP: inactive; PreQ1: active